The source of these data is patent publication US4897344A, “Method of hardening gelatin” (Fuji Photo Film Co., Ltd., priority 1987, dated 1990).

The test system of series [1] is acid treated gelatin. Nature of the series: Hardening of gelatin microcapsule walls, capsule quality (Example 5). The note with it: 100 parts of 10% aqueous solution of Compound 9. How it is done: Next 30 parts of diisopropylbiphenyl in which 2% of crystal violet lactone (CVL) had been dissolved was added to the colloidal solution and stirred vigorously to form an oil in water emulsion, and the stirring was stopped when the size of the oil droplets was 6 to 10μ. Next 250 parts of warm water at 45° C. was added to the emulsion. The pH was then adjusted to 4.5 by titration with 50% acetic acid while stirring the mixture. After stirring at this temperature for 15 minutes, the container was cooled from the outside, and the colloid walls which had accumulated were gelled and solidified. The stirring was continued and, when the liquid temperature reached 15° C., 100 parts of a 10% aqueous solution of Compound 9 of this invention was added as a hardening agent. When the liquid temperature reached 10° C. the dropwise addition of a 10% aqueous solution of caustic soda was started and the pH was finally raised to 10.
To parts of a 15% aqueous solution of poly(vinyl alcohol) and 0.5 parts of starch were added to 10 parts of the capsule liquid obtained in this way to form a coating liquid, and this was coated with a coating rod onto a top paper in such a way as to provide a solid fraction coated weight of 20 grams per square meter. […]

A short description of series [2]: Image evaluation of plate-making film after storage (Example 4). The following applies: room temperature; Compound 4 3 wt % with respect to gelatin. The protocol: A silver nitrate solution and a halide solution consisting of sodium chloride and potassium bromide were added using the double jet method to an aqueous gelatin solution which was being maintained at 45° C., and a monodisperse, cubic silver chlorobromide emulsion (70 mol % Cl) of which the average grain size was 0.20μ was obtained. At this time 7×10^-8 mol per mol of silver of triammonium hexachlororhodium and 3×10^-7 mol per mol of silver of tripotassium hexachloroiridium were added. The emulsion was washed with water and de-salted in the usual manner and then chemically sensitized by the addition of sodium thiosulfate and chloroauric acid and an emulsion was obtained. An emulsion layer coating solution was then prepared by adding (D-1) as a sensitizing dye, 4-hydroxy-6-methyl-1,3,3a,7-tetrazaindene and 1-phenyl-5-mercaptotetrazole as stabilizers and a poly(ethylacrylate) dispersion, 100 mg per mol of silver of Compound (4), Compound (1), and moreover 3 wt % with respect to the gelatin of Compound 4 of this invention as a film hardening agent to this emulsion.
A protective layer coating solution was obtained by adding poly(methyl methacrylate) as a matting agent and Compounds (2) and (3) as coating promotors to a gelatin solution. [drawing 12]
An emulsion layer and a protective layer were coated in the above order from the support on a polyethyleneterephthalate support. […]

Regarding `C=CS(=O)(=O)C(COc1ccc(S(=O)(=O)O)c2ccccc12)S(=O)(=O)C=C` [Compound 9], in series [1], the coloration of capsules entry is on record as “no coloration” and the “heat resistance of capsules” value was “resistant to heat”.

`C=CS(=O)(=O)CC(=O)NC(NC(=O)CS(=O)(=O)C=C)c1ccc(OCCCS(=O)(=O)O)cc1` [Comparative Compound (II)]: in series [2], the “image quality / photographic performance, stored 3 days” value is reported as “only the sample which had been stored for 7 days had a good photographic performance” and the “image quality / photographic performance, stored 7 days” value was “good photographic performance”.
